The results in this text go back to the supplement of paper PMC4635364.

Assay [1] has as its system ReNCell VM. The assay can be described thus: neuronal differentiation score (DCX+ cell fraction vs untreated, manual image score) (score (-3 to 3)); higher = more neuronal differentiation. The settings on record: 2 uM, 2 weeks.
In assay [2] the test system is ReNCell VM. The assay can be described thus: dopaminergic neuron differentiation score (TH+ cell fraction vs untreated, manual image score) (score (0 to 3)); higher = more TH+ dopaminergic neuron differentiation. The settings on record: 2 uM, 4 weeks, BDNF 10 ng/ml + GDNF 10 ng/ml.

Structures are written as SMILES. Counter-ions that a name gives are not always drawn. Some of the results follow. Repeats in this data set agree poorly, so a single value says little.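 Cells: ReNCell VM human fetal ventral-midbrain neural progenitors, differentiated mitogen-free. Blinded raters compared doublecortin-stained (early neurons) or tyrosine hydroxylase-stained (dopaminergic neurons) images with untreated wells, where 0 means no change. After repeats and both raters were averaged, compounds scoring 2 or above became hits for retesting.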

For the compound `CCNCC(O)c1cccc(O)c1` (stereo not drawn) [Etilefrine hydrochloride], in assay [1] (library: Prestwick), the neuronal differentiation score was inactive: 0. For the same compound, the “dopaminergic neuron differentiation score” value in assay [2] (library: Prestwick) is inactive: 0.
Regarding `COc1c2c(cc3c1OCO3)CC[N+](C)=C2` [Cotarnine chloride], in assay [1] (library: Phytochemical), the neuronal differentiation score was inactive: 0. The “dopaminergic neuron differentiation score” value in assay [2] (library: Phytochemical) was inactive: 0.
`CCCn1c(=O)c2[nH]c(C3CCCC3)nc2n(CCCOC(=O)c2ccc(S(=O)(=O)F)cc2)c1=O`: in assay [1] (library: LOPAC), the neuronal differentiation score is inactive: -1. Moreover, the “dopaminergic neuron differentiation score” value in assay [2] (library: LOPAC) was inactive: 0.
The like results for `CC(C)C[C@H]1C(=O)N2CCC[C@H]2[C@]2(O)O[C@](NC(=O)[C@@H]3C=C4c5cccc6[nH]c(Br)c(c56)C[C@H]4N(C)C3)(C(C)C)C(=O)N12` [(+)-Bromocriptine methanesulfonate] were, in that order, inactive: 0 and inactive: 0.
The like results for `C[C@H](N)CN1CCc2ccc(Br)cc21` [VER-3323 hemifumarate salt] were, in that order, inactive: 0 and inactive: 0.
For the compound `CCC(Oc1ccc(Cl)cc1)C(=O)OC1C[C@H]2CC[C@@H](C1)N2C` (stereo partly drawn) [SM-21 maleate], in assay [1] (library: Tocriscreen), the neuronal differentiation score was inactive: 0. The “dopaminergic neuron differentiation score” value in assay [2] (library: Tocriscreen) was inactive: 0.
Turning to `COc1cc2c(cc1OC)[C@@H]1C(=O)c3ccc4c(c3O[C@@H]1CO2)CC(C(C)C)O4` (stereo partly drawn), in assay [1] (library: Spectrum), the neuronal differentiation score was inactive: 0. The “dopaminergic neuron differentiation score” value in assay [2] (library: Spectrum) was inactive: 0.
For `CN1CCc2cc3c(cc2C1C1OC(=O)c2c1ccc1c2OCO1)OCO3` (single isomer, unassigned; (+)) [(+)-Bicuculline], in assay [1] (library: Tocriscreen), the neuronal differentiation score is inactive: 1. In addition, in assay [2] (library: Tocriscreen), the “dopaminergic neuron differentiation score” value is inactive: 0.
Consider `CC(=O)O[C@H]1C(=O)[C@@]2(C)[C@H]([C@H](OC(=O)c3ccccc3)[C@]3(O)C[C@H](O)C(C)=C1C3(C)C)[C@]1(OC(C)=O)CO[C@@H]1C[C@@H]2O`, for which the neuronal differentiation score in assay [1] (library: Spectrum) was inactive: 0. Also, the “dopaminergic neuron differentiation score” value in assay [2] (library: Spectrum) is inactive: 0.
For `CC(C)[N+](C)(CCC(C(N)=O)(c1ccccc1)c1ccccc1)C(C)C`, the neuronal differentiation score in assay [1] (library: Spectrum) was inactive: 1. The “dopaminergic neuron differentiation score” value in assay [2] (library: Spectrum) is inactive: 0.
With `CO[C@@H]1C=C2CCN(C)[C@@H]2C2c3cc4c(cc3C(=O)OC21)OCO4` (stereo partly drawn) [Ungerine nitrate], the neuronal differentiation score in assay [1] (library: Phytochemical) is inactive: 0. For the same compound, in assay [2] (library: Phytochemical), the “dopaminergic neuron differentiation score” value is inactive: 0.
In the case of `C[N+](C)(C)CC#CCOC(=O)Nc1cccc(Cl)c1`, the neuronal differentiation score in assay [1] (library: LOPAC) was inactive: 0. For the same compound, the “dopaminergic neuron differentiation score” value in assay [2] (library: LOPAC) was inactive: 0.
Turning to `O=c1ccc2ccc3occc3c2o1` [Angelicin], the neuronal differentiation score in assay [1] (library: Phytochemical) was inactive: 0. In addition, the “dopaminergic neuron differentiation score” value in assay [2] (library: Phytochemical) is inactive: 0.
Take `CNCC(=O)c1ccc(O)c(O)c1`: the neuronal differentiation score in assay [1] (library: Spectrum) is inactive: 0. Besides, the “dopaminergic neuron differentiation score” value in assay [2] (library: Spectrum) is inactive: 0.
Regarding `CNC(=O)Oc1ccc2c(c1)[C@]1(C)CC[N+](C)([O-])[C@@H]1N2C` (stereo partly drawn) [Geneserine], the neuronal differentiation score in assay [1] (library: Phytochemical) was inactive: 1. Moreover, in assay [2] (library: Phytochemical), the “dopaminergic neuron differentiation score” value was inactive: 0.
`N#CCCN` [3-Aminopropionitrile fumarate]: the neuronal differentiation score in assay [1] (library: LOPAC) was inactive: 1. In assay [2] (library: LOPAC), the “dopaminergic neuron differentiation score” value is inactive: 0.
Turning to `Cc1nccc2c1[nH]c1ccccc12` [Harmane hydrochloride], the neuronal differentiation score in assay [1] (library: Phytochemical) was inactive: 0. The “dopaminergic neuron differentiation score” value in assay [2] (library: Phytochemical) is inactive: 0.
Turning to `NCC(CP(=O)(O)O)c1ccc(Cl)cc1` (stereo not drawn) [Phaclofen], the neuronal differentiation score in assay [1] (library: LOPAC) is inactive: 0. For the same compound, the “dopaminergic neuron differentiation score” value in assay [2] (library: LOPAC) is inactive: 0.
Turning to `Cc1cc(O)ccc1Cl`, the neuronal differentiation score in assay [1] (library: Spectrum) was inactive: 0. Besides, the “dopaminergic neuron differentiation score” value in assay [2] (library: Spectrum) is inactive: 0.
Take `Cc1ccc(C[N+](C)(C)C)o1` [5-Methylfurmethiodide]: the neuronal differentiation score in assay [1] (library: Tocriscreen) was inactive: 0. For the same compound, the “dopaminergic neuron differentiation score” value in assay [2] (library: Tocriscreen) was inactive: 0.
Take `CCCCCCCCCCCCCCCC[n+]1ccccc1`: the neuronal differentiation score in assay [1] (library: Spectrum) was inactive: 0. Further, the “dopaminergic neuron differentiation score” value in assay [2] (library: Spectrum) was inactive: 0.
`CN1C2CC(=O)CC1C(O)C2` (stereo not drawn) [6-Hydroxytropinone]: in assay [1] (library: Phytochemical), the neuronal differentiation score was inactive: 0. Besides, the “dopaminergic neuron differentiation score” value in assay [2] (library: Phytochemical) is inactive: 0.
As for `O=c1[nH]oc2c1CCNC2` [THIP Hydrochloride], the neuronal differentiation score in assay [1] (library: Prestwick) is inactive: 0. Also, in assay [2] (library: Prestwick), the “dopaminergic neuron differentiation score” value is inactive: 0.
In the case of `CCCN1C[C@H](CSC)C[C@@H]2c3cccc4[nH]cc(c34)C[C@H]21` [Pergolide mesylate], the neuronal differentiation score in assay [1] (library: Prestwick) is inactive: 0. In addition, the “dopaminergic neuron differentiation score” value in assay [2] (library: Prestwick) was inactive: 0.
On to `COC1=CC(=O)O[C@@H](/C=C/c2ccccc2)C1`, for which, in assay [1] (library: Spectrum), the neuronal differentiation score was inactive: 0. For the same compound, the “dopaminergic neuron differentiation score” value in assay [2] (library: Spectrum) was inactive: 0.
For the compound `C[N+](C)(C)CC#CCN1CCCC1=O` [Oxotremorine methiodide], in assay [1] (library: LOPAC), the neuronal differentiation score is inactive: 0. The “dopaminergic neuron differentiation score” value in assay [2] (library: LOPAC) is inactive: 0.
Consider `CN1[C@@H]2CC[C@H]1C[C@@H](OC(=O)[C@H](CO)c1ccccc1)C2`, for which the neuronal differentiation score in assay [1] (library: Spectrum) was inactive: 0. In addition, in assay [2] (library: Spectrum), the “dopaminergic neuron differentiation score” value is inactive: 0.
Turning to `COc1c2c(cc3c1OCO3)CCN(C)C2` [Hydrocotarnine hydrobromide], the neuronal differentiation score in assay [1] (library: Phytochemical) was inactive: 0. Also, the “dopaminergic neuron differentiation score” value in assay [2] (library: Phytochemical) was inactive: 0.
`C[N+]1(C)CCN(c2ccccc2)CC1` [1,1-Dimethyl-4-phenyl-piperazinium iodide]: in assay [1] (library: LOPAC), the neuronal differentiation score is inactive: -1. Also, in assay [2] (library: LOPAC), the “dopaminergic neuron differentiation score” value is inactive: 0.
`COc1ccc2[nH]c3c(c2c1)CCN=C3C` [Methoxy-6-harmalan]: the neuronal differentiation score in assay [1] (library: Phytochemical) was inactive: 0. Also, the “dopaminergic neuron differentiation score” value in assay [2] (library: Phytochemical) was inactive: 0.
For `C[C@H]1O[C@H](O[C@H]2[C@H](O)[C@@H](O)[C@@H](O)[C@H](O)[C@@H]2O)[C@@H](N)C[C@@H]1NC(=N)C(=O)O`, the neuronal differentiation score in assay [1] (library: Spectrum) is inactive: 0. In assay [2] (library: Spectrum), the “dopaminergic neuron differentiation score” value was inactive: 0.
Turning to `c1ccc(C2(c3ccccc3)CC2C2=NCCN2)cc1` (stereo not drawn) [Cibenzoline succinate], in assay [1] (library: LOPAC), the neuronal differentiation score was inactive: 0. Further, in assay [2] (library: LOPAC), the “dopaminergic neuron differentiation score” value is inactive: 0.
In the case of `C[C@@H](CO)NC(=O)[C@@H]1C=C2c3cccc4[nH]cc(c34)C[C@H]2N(C)C1`, the neuronal differentiation score in assay [1] (library: Spectrum) is inactive: 0. Also, the “dopaminergic neuron differentiation score” value in assay [2] (library: Spectrum) is inactive: 0.
As for `CCN1C[C@]2(COC)CC[C@H](O)[C@]34C1[C@@](O)([C@@H](OC)[C@H]23)[C@@]1(O)C[C@H](OC)[C@H]2C[C@@H]4[C@@H]1[C@H]2OC` [Delsoline], the neuronal differentiation score in assay [1] (library: Phytochemical) was inactive: 0. In addition, the “dopaminergic neuron differentiation score” value in assay [2] (library: Phytochemical) is inactive: 0.
